Reference: patent publication US6399562B2, “Solvent compositions” (Ausimont S.p.A., priority 2000, dated 2002)

Test: environmental impact: ODP, lifetime, GWP
Conditions: for ODP: CFC 11 = 1; for GWP100years: CO2 = 1

SMILES: FC(F)(Cl)C(F)(Cl)Cl [CFC 113, 1,1,2-trichloro-1,2,2-trifluoroethane, reference compound]
- lifetime: 110 years
- ODP: 1.07
- GWP100years: 5,000

SMILES: FC(F)OC(F)(F)C(F)(F)OC(F)F [HCF2OCF2CF2OCF2H, 1-difluoromethoxy-1,1,2,2-tetrafluoroethyl difluoromethyl ether]
- lifetime: <10 years
- ODP: 0
- ODP (listed as The hydrofluoropolyether): zero
- GWP100years: 1,725
